From PubChem BioAssay AID192 (DTP/NCI, 2004)
The list is a part of this screen's results and no random one: its compounds were picked by chemical class. Other doses and runs of a compound may be missing. T/C: endpoint of the treated group in % of that of the vehicle group. Some doses have a count of surviving animals in place of a T/C: the source files T/C as zero there, which appears to mark a toxic dose or a test without result, not a measured value. Some doses without a T/C left all or most animals alive at the check, yet need not have been tolerated: survival well below the control is almost never listed, so the zero probably covers shortened survival too. Counts of survivors are from the toxicity check (mostly the fifth day) where no day follows; animals may have died later. Schedule codes are those of the source, read here as Q, the interval in days (D) or hours (H), X, the number of doses. Some doses were run more than once; their values stand side by side, smallest first. For survival time, this PubChem deposit counts one and a half times the control or more as active, and values a quarter to a half above the control carry no call in these data; other NCI protocols may use other cut-offs. Some T/C values are marked as having no survivor count here; that says nothing about deaths at the dose. Counts like (3×) count equal records among those shown. Some T/C values are followed by the survivors on the day toxicity was checked, most often the fifth; without a count or a note in brackets, all were alive then.

System: BDF1 mice, B16 melanoma ip, median survival T/C
Assay: NCI In Vivo Anticancer Drug Screen. Data for tumor model B16 Melanoma (intraperitoneal) in B6D2F1 (BDF1) mice
Details: T/C endpoint: median survival time, schedule: Q01DX009 (ip), higher T/C = longer survival
Experimental: The antitumor activity of compounds was measured in mice bearing transplantable tumors. Survival or tumor size were measured and the results are expressed as the measurement made in the treated group (T) divided by the measurement made in the vehicle treated control group (C). The tumor model used in this assay is B16 Melanoma (intraperitoneal) in B6D2F1 (BDF1) mice

[1] = dose: 1.56 mg/kg/injection, vehicle: Klucel (hydroxypropylcellulose) (HPC)
[2] = dose: 3.13 mg/kg/injection, vehicle: Klucel (hydroxypropylcellulose) (HPC), evaluated on day 60
[3] = dose: 3.13 mg/kg/injection, vehicle: Klucel (hydroxypropylcellulose) (HPC), evaluation day not shown
[4] = dose: 6.25 mg/kg/injection, vehicle: Klucel (hydroxypropylcellulose) (HPC), evaluated on day 60
[5] = dose: 6.25 mg/kg/injection, vehicle: Klucel (hydroxypropylcellulose) (HPC), evaluation day not shown
[6] = dose: 12.5 mg/kg/injection, vehicle: Klucel (hydroxypropylcellulose) (HPC), evaluated on day 60
[7] = dose: 12.5 mg/kg/injection, vehicle: Klucel (hydroxypropylcellulose) (HPC), evaluation day not shown
[8] = dose: 25.0 mg/kg/injection, vehicle: Klucel (hydroxypropylcellulose) (HPC), evaluated on day 60
[9] = dose: 25.0 mg/kg/injection, vehicle: Klucel (hydroxypropylcellulose) (HPC), evaluation day not shown
[10] = dose: 50.0 mg/kg/injection, vehicle: Klucel (hydroxypropylcellulose) (HPC)
[11] = dose: 1.56 mg/kg/injection, vehicle: Klucel (hydroxypropylcellulose) (HPC), evaluated on day 60
[12] = dose: 1.56 mg/kg/injection, vehicle: Klucel (hydroxypropylcellulose) (HPC), evaluation day not shown
[13] = dose: 3.0 mg/kg/injection, vehicle: saline with Tween-80
[14] = dose: 3.12 mg/kg/injection, vehicle: Klucel (hydroxypropylcellulose) (HPC)
[15] = dose: 6.0 mg/kg/injection, vehicle: saline with Tween-80
[16] = dose: 12.0 mg/kg/injection, vehicle: saline with Tween-80
[17] = dose: 12.5 mg/kg/injection, vehicle: saline with Tween-80
[18] = dose: 24.0 mg/kg/injection, vehicle: saline with Tween-80
[19] = dose: 25.0 mg/kg/injection, vehicle: saline with Tween-80
[20] = dose: 3.13 mg/kg/injection, vehicle: Klucel (hydroxypropylcellulose) (HPC)
[21] = dose: 6.25 mg/kg/injection, vehicle: Klucel (hydroxypropylcellulose) (HPC)
[22] = dose: 12.5 mg/kg/injection, vehicle: Klucel (hydroxypropylcellulose) (HPC)
[23] = dose: 25.0 mg/kg/injection, vehicle: Klucel (hydroxypropylcellulose) (HPC)

Compound: COc1ccc(N(CCCl)CCCl)cc1
- T/C [1]: 108 % of control [survivor count not shown]
- T/C [2]: 110 % of control
- T/C [3]: 101 % of control [survivor count not shown]
- T/C [4]: 129 and 142 % of control
- T/C [5]: 110 % of control [survivor count not shown]
- T/C [6]: 140 and 150 % of control
- T/C [7]: 131 % of control [survivor count not shown]
- T/C [8]: 99 and 183 % of control
- T/C [9]: 163 % of control [survivor count not shown]
- survivor count [10]: 10 of 10

Compound: C[N+](CCCl)(CCCl)Cc1ccc([N+](=O)[O-])cc1
- T/C (dose: 0.78 mg/kg/injection, vehicle: saline): 109 % of control [survivor count not shown]
- T/C (dose: 1.56 mg/kg/injection, vehicle: saline): 115 % of control [survivor count not shown]
- T/C (dose: 3.12 mg/kg/injection, vehicle: saline): 109 [survivor count not shown] and 111 % of control [survivor count not shown]
- T/C (dose: 6.25 mg/kg/injection, vehicle: saline): 115 [survivor count not shown], 126 [survivor count not shown], 143 % of control [survivor count not shown]
- T/C (dose: 12.5 mg/kg/injection, vehicle: saline): 118 % of control [survivor count not shown]

Compound: ClCCN(CCCl)c1ccccc1
- T/C [11]: 107 % of control
- T/C [12]: 96 % of control [survivor count not shown]
- T/C [13]: 112 % of control [survivor count not shown]
- T/C [14]: 107 and 108 % of control
- T/C [2]: 101 % of control
- T/C [3]: 97 % of control [survivor count not shown]
- T/C [15]: 119 % of control [survivor count not shown]
- T/C [4]: 110, 119, 122 % of control
- T/C [5]: 104 % of control [survivor count not shown]
- T/C (dose: 6.25 mg/kg/injection, vehicle: saline with Tween-80): 108 % of control [survivor count not shown] (2×)
- T/C [16]: 128 % of control [survivor count not shown]
- T/C [6]: 123, 136, 159 % of control
- T/C [7]: 110 % of control [survivor count not shown]
- T/C [17]: 125 [survivor count not shown] and 129 % of control [survivor count not shown]
- T/C [18]: 102 % of control [survivor count not shown]
- T/C [8]: 144 [9 of 10 alive], 154, 159 % of control
- T/C [9]: 93 % of control [survivor count not shown]
- T/C [19]: 102 [survivor count not shown], 112 [survivor count not shown], 133 % of control [survivor count not shown]
- T/C (dose: 44.0 mg/kg/injection, vehicle: saline with Tween-80): 103 % of control [survivor count not shown]
- survivor count [10]: 9 of 10 and 10 of 10
- T/C (dose: 50.0 mg/kg/injection, vehicle: saline with Tween-80): 116 [survivor count not shown] and 134 % of control [survivor count not shown]
- T/C (dose: 100.0 mg/kg/injection, vehicle: saline with Tween-80): 150 % of control [survivor count not shown]

Compound: Nc1cc(N)cc(N(CCCl)CCCl)c1
- T/C (dose: 0.78 mg/kg/injection, vehicle: Klucel (hydroxypropylcellulose) (HPC)): 97 % of control [survivor count not shown]
- T/C [1]: 98 % of control [survivor count not shown]
- T/C [20]: 102 % of control [survivor count not shown]
- T/C [21]: 131 % of control [survivor count not shown]

Compound: BrCCN(CCBr)c1ccc2c(c1)Cc1ccccc1-2
- T/C [13]: 123 % of control [survivor count not shown]
- T/C [14]: 130 % of control [survivor count not shown]
- T/C (dose: 5.56 mg/kg/injection, vehicle: saline with Tween-80): 217 % of control [survivor count not shown]
- T/C [15]: 135 % of control [survivor count not shown]
- T/C [21]: 150 % of control [survivor count not shown]
- T/C (dose: 8.33 mg/kg/injection, vehicle: saline with Tween-80): 252 % of control [survivor count not shown]
- T/C [16]: 162 % of control [survivor count not shown]
- T/C [22]: 171 % of control [survivor count not shown]
- T/C [17]: 117 [survivor count not shown] and 172 % of control [survivor count not shown]
- T/C (dose: 18.7 mg/kg/injection, vehicle: saline with Tween-80): 98 % of control [survivor count not shown]
- T/C [18]: 153 % of control [survivor count not shown]
- T/C [23]: 198 % of control [survivor count not shown]
- T/C [19]: 102 % of control [survivor count not shown]
- T/C (dose: 48.0 mg/kg/injection, vehicle: saline with Tween-80): 106 % of control [survivor count not shown]
- T/C [10]: 116 % of control [survivor count not shown]

Compound: Cc1ccc(N(CCBr)CCBr)cc1
- T/C [11]: 143 % of control
- T/C [12]: 130 % of control [survivor count not shown]
- T/C [14]: 121 % of control [survivor count not shown]
- T/C [20]: 150 % of control
- T/C [21]: 130 % of control [survivor count not shown]
- survivor count [21]: 10 of 10
- T/C [22]: 130 % of control [survivor count not shown]
- survivor count [22]: 10 of 10
- survivor count [23]: 8 of 10

Compound: CC1=CC(=O)C(N(CCCl)CCCl)=CC1=O
- T/C (dose: 0.19 mg/kg/injection, vehicle: Klucel (hydroxypropylcellulose) (HPC)): 116 % of control
- T/C (dose: 0.39 mg/kg/injection, vehicle: Klucel (hydroxypropylcellulose) (HPC), evaluated on day 60): 120 % of control
- T/C (dose: 0.39 mg/kg/injection, vehicle: Klucel (hydroxypropylcellulose) (HPC), evaluation day not shown): 113 % of control [survivor count not shown]
- T/C (dose: 0.78 mg/kg/injection, vehicle: Klucel (hydroxypropylcellulose) (HPC), evaluated on day 60): 135 % of control
- T/C (dose: 0.78 mg/kg/injection, vehicle: Klucel (hydroxypropylcellulose) (HPC), evaluation day not shown): 139 % of control [survivor count not shown]
- T/C [11]: 153 % of control
- T/C [12]: 143 [survivor count not shown], 179 [survivor count not shown], 208 % of control [survivor count not shown]
- T/C [14]: 162 % of control
- T/C [20]: 95 [survivor count not shown] and 187 % of control [survivor count not shown]
